Results on one sequence are retold here after US8551701.

For the series, the system named is BfaI restriction endonuclease. Kind of series: enzyme reaction in vitro. To be noted: 5'-thiol (HRP conjugated) and 3'-biotin on SEQ 2, 37 C, 2 h, immobilised on streptavidin plate, HRP release depends on target concentration (about 1 nM detectable) and on BfaI amount, purified recombinant protein, label: HRP.

The exact form of at least one protein or probe is not confirmed.

For the sequence “GGTAGTGCGAAATGCCATTGCTAGTTGTTT / AAACAACTAGCAATGGCATTT [target-probe hybrid with BfaI site]”, the “activity on this sequence” value is on record as “active”.
